Test results published in patent US11938177B2, “Peptide vaccine formulations and use thereof for inducing an immune response” (The United States of America, as represented by the …, priority 2016, dated 2024).
“Also recorded” adds a separate entry of the source. Part of at least one peptide drawing is inferred or uncertain, most often the ends. Square brackets hold non-standard residues; d marks the D form. Peptide text beside a SMILES is read from it. Lys(N3) = [N-]=[N+]=NCCCC[C@H](N)C(=O)O

Columns and labels:
[1] = tested on: B16 melanoma cells expressing full-length Ovalbumin; assay: Survival of immunized mice after intravenous challenge with B16 melanoma cells expressing Ovalbumin; assay type: in vivo; settings: 2 immunizations with TLR-7/8a adjuvant, intravenous B16-OVA challenge
[2] = tested on: CD8 T cells; assay: Tetramer+ CD8 T cell responses after vaccination with SIINFEKL long peptides and adjuvant; assay type: in vivo, mice; settings: for CD8+ T cell responses to the SIINFEKL epitope: peptide alone or with TLR-7/8a adjuvant, subcutaneous footpad days 0 and 14, blood day 28
[3] = tested on: OT-I cells; assay: Persistence of antigen presentation in vivo (CFSE-labeled OT-I cell transfer); set-up: species or system mice
[4] = tested on: B16 melanoma cells expressing full-length Ovalbumin; assay: Treatment of established B16-Ovalbumin tumors with long peptide vaccines (CD8 responses, tumor volume); assay type: in vivo, mice

## CC[C@H](C)[C@H](NC(=O)[C@@H](NC(=O)[C@@H](N)CO)[C@@H](C)CC)C(=O)N[C@@H](CC(N)=O)C(=O)N[C@@H](Cc1ccccc1)C(=O)N[C@@H](CCC(=O)O)C(=O)N[C@@H](CCCCN)C(=O)N[C@@H](CC(C)C)C(=O)N[C@H](C(=O)N[C@@H](Cc1ccccc1)C(=O)N1CCC[C@H]1C(=O)N[C@@H](CCCNC(=N)N)C(=O)N[C@@H](CO)C(=O)N1CCC[C@H]1C(=O)N[C@H](C(=O)N[C@H](C(=O)N[C@@H](Cc1ccccc1)C(=O)N[C@@H](Cc1ccc(O)cc1)C(=O)N[C@@H](CC(N)=O)C(=O)N[C@H](C(=O)N1CCC[C@H]1C(=O)N1CCC[C@H]1C(=O)N[C@@H](CCSC)C(=O)N1CCC[C@H]1C(=O)N[C@@H](CC(C)C)C(=O)N1CCC[C@H]1C(=O)N1CCC[C@H]1C(=O)N[C@@H](CO)C(=O)N[C@@H](CCC(N)=O)C(=O)N[C@@H](CC(C)C)C(=O)N[C@@H](CCCCN=[N+]=[N-])C(=O)O)[C@@H](C)CC)C(C)C)[C@@H](C)O)C(C)C [LSI]
[1]
  median survival: 43 days
[2]; combined with CpG or polyICLC
  higher levels of CD8+ T cell responses compared with soluble peptide with same adjuvants: ~10 fold
[2]
  CD8+ T cell responses to the SIINFEKL epitope: induced CD8^+ T cell responses; also recorded: Increased CD8 T cell responses
[3]; admixed with small molecule TLR-7/8a, cells transferred at days 3 and 6, compared with soluble peptide
  expansion of CD8 T cells transferred after vaccination: markedly higher expansion of CD8 T cells
[3]; all combinations with adjuvant
  CD8 T cell (OT-I) expansion: increased CD8 T cell expansion
[4]; day 18, compared with soluble long peptides with same adjuvant
  tumor volume: reduced tumor volumes
[4]; vaccinated days 3 and 17, blood day 16, compared with soluble long peptides with same adjuvant
  magnitude of CD8+ T cell responses: significantly higher magnitude of CD8+ T cell responses

## CC[C@H](C)[C@H](NC(=O)[C@@H](NC(=O)[C@@H](N)CO)[C@@H](C)CC)C(=O)N[C@@H](CC(N)=O)C(=O)N[C@@H](Cc1ccccc1)C(=O)N[C@@H](CCC(=O)O)C(=O)N[C@@H](CCCCN)C(=O)N[C@@H](CC(C)C)C(=O)N[C@H](C(=O)N[C@@H](CCCCN)C(=O)N1CCC[C@H]1C(=O)N[C@@H](CCCNC(=N)N)C(=O)N[C@@H](CO)C(=O)N1CCC[C@H]1C(=O)N[C@H](C(=O)N[C@@H](CCCNC(=N)N)C(=O)N[C@@H](Cc1ccccc1)C(=O)N[C@@H](CC(=O)O)C(=O)N[C@@H](CC(N)=O)C(=O)N[C@@H](CO)C(=O)N[C@@H](CCCCN)C(=O)N1CCC[C@H]1C(=O)N[C@@H](CO)C(=O)N1CCC[C@H]1C(=O)N[C@@H](CCC(=O)O)C(=O)N1CCC[C@H]1C(=O)N[C@@H](CCCCN)C(=O)N[C@@H](CO)C(=O)N[C@@H](CCC(N)=O)C(=O)N[C@@H](CC(=O)O)C(=O)N[C@@H](CCCCN=[N+]=[N-])C(=O)O)[C@@H](C)O)C(C)C [LSS] (H-SIINFEKLVKPRSPTRFDNSKPSPEPKSQD[Lys(N3)]-OH)
[1]
  median survival: 33 days
[2]
  CD8+ T cell responses to the SIINFEKL epitope: unable to induce a CD8+ T cell response above background
